# Whole data set: some 33,000 sequences, median “E-score (-0.5 to 0.5)” near -0.0034, cut for the highest 2% near 0.25. This is one part of the list.
# Target: T1, Yap3 (UniProt P38749)
# T1 sequence: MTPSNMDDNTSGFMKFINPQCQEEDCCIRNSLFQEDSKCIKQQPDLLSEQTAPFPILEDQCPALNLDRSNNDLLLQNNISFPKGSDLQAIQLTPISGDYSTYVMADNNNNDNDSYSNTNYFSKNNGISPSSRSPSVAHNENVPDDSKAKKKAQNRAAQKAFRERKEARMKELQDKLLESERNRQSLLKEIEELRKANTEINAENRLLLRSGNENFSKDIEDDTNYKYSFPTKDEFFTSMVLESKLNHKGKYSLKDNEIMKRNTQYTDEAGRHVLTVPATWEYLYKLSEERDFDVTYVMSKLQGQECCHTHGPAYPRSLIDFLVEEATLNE
# Assay: PBM E-score (8-mer binding enrichment) (E-score (-0.5 to 0.5)); higher = stronger / more preferred TF binding
# Conditions: protein concentration: 100 nM; construct: GST-full length
# How it was run: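 Using PURExpress in vitro transcription/translation, GST-tagged yeast transcription factors were made in full-length or DNA-binding-domain form. These were applied at about 100-200 nM to double-stranded universal all-10-mer Agilent arrays, and bound protein was detected with fluorescent anti-GST. Scans were normalised with masliner before the Universal PBM Analysis Suite assigned E-scores to ungapped eight-base words pooled with their reverse complements.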
row,Sequence,PBM E-score
1,ATGAGGCA,-0.0878
2,GACGTTGC,-0.0109
3,ATATCATA,0.271
4,ATATGCGC,0.0899
5,CTAAGCCC,-0.174
6,GATGTCGA,-0.034
7,CTGCCCTA,-0.132
8,AAGAATGG,-0.0369
9,CGATCGTA,0.126
10,AGTTTGCG,0.11
11,AATATTTC,0.154
12,TAGGAGCA,-0.176
13,AACTGGCG,0.0298
14,CGAGGGAC,-0.198
15,AAGGTAAT,0.139
16,CTACCTAG,-0.0731
17,AAAAGTCG,0.0637
18,ACGGAATC,-0.00809
19,GATTCTAC,-0.0393
20,GTGATTAA,0.166
21,GCACGACA,-0.127
22,TCGAGAGA,-0.207
23,CGAACTCA,-0.124
24,GCAGCCAC,-0.12
25,CCCGGTTA,-0.309

row,Sequence,PBM E-score
1,ACCCTGTG,-0.044
2,ATACTCCA,0.063
3,AACTCCAT,-0.0459
4,AAACGCGT,-0.032
5,GCGGTTCC,-0.0658
6,CAATCTCA,0.0896
7,CGGCCGCA,-0.0862
8,AAACCAGT,-0.0425
9,AATTGATA,0.19
10,CTTCCTCA,-0.0697
11,ATGACACA,0.24
12,AGCGGGAA,0.0988
13,ATGATCGC,0.0319
14,CCCCTCTC,-0.306
15,CATGGCCA,-0.25
16,GATTAGGC,0.125
17,ACGATTAC,0.127
18,CCAGAGCA,0.0489
19,CCTTAACC,-0.248
20,AATTGACG,0.136
21,CGGATACA,0.131
22,GTTACGCA,0.0313
23,CCGCATCA,-0.0944
24,CAGTGGAA,-0.111
25,AGATCCTG,-0.163

# Some of the entries so far, with tabs:
row	Sequence	PBM E-score
5	GCGGTTCC	-0.0658
7	CGGCCGCA	-0.0862
10	CTTCCTCA	-0.0697
13	ATGATCGC	0.0319
15	CATGGCCA	-0.25
17	ACGATTAC	0.127
18	CCAGAGCA	0.0489

# Later entries:

row,Sequence,PBM E-score
1,CAGTACCA,-0.0169
2,CATGGGCG,-0.062
3,GGACGAGA,-0.05
4,CTAAGGTC,-0.0277
5,ATACGCTG,0.117
6,TCCTATCA,-0.00883
7,ATTCTATA,0.153
8,CTCGTTCC,-0.0635
9,GGTAGCGA,0.0404
10,ACAAAATG,0.215
11,CTACAAGC,-0.0331
12,CAGTTAGA,-0.0207
13,CGAGACCA,-0.0599
14,CGTCACAA,-0.00013
15,ATCATGTA,0.152
16,GATACCGC,0.0673
17,ATTCGTAA,0.292
18,GCAAGCAC,-0.222
19,TATACACA,0.134
20,ATGTCATG,0.108
21,GCCTGAGA,-0.208
22,AAGAACTC,0.0687
23,CCAAGTCG,-0.0405
24,AATTATGA,0.278
25,GCAGATAA,-0.0214

row,Sequence,PBM E-score
1,TCCACAGA,0.083
2,GAACTCCA,-0.0465
3,CGAACTGA,-0.0309
4,CGCCACTA,-0.0394
5,CGGAGACG,0.0722
6,ATCGTGCG,0.238
7,CGCCTAAG,-0.162
8,GACCCTCA,-0.348
9,GTATAAGA,0.0832
10,AATGCTGA,-0.00858
11,GCCGCTGA,-0.057
12,TGCCCGCA,0.0531
13,CGAAGTCC,-0.171
14,ATATACGC,0.0422
15,AGCTTACG,0.149
16,GAGACAGC,-0.0108
17,CCCACCTC,-0.148
18,GGTGTCAC,-0.0636
19,CTACTGAC,-0.083
20,ATACCGGG,0.0138
21,AGTGCTGG,-0.082
22,GCCAGACA,0.0706
23,CGGGAAGA,0.144
24,ATGTTATC,0.206
25,ACAAACTG,-0.0673

row,Sequence,PBM E-score
1,AGGCGAGG,-0.212
2,GAGCTATA,0.00431
3,CGCCTCCG,-0.245
4,AGTTATCA,0.00581
5,ATTCTCTG,-0.049
6,ACCCGAGC,-0.0717
7,TGTATCAA,0.174
8,AGAACTAT,0.158
9,ATTGGCAC,-0.0204
10,GATACGGA,0.148
11,CTACGGAC,-0.217
12,GAGCGTTA,-0.0322
13,GCAAGCCA,-0.148
14,GAATATGC,0.039
15,TAAGATCA,0.0665
16,AGTTGTAT,0.103
17,ATTACGGG,0.0809
18,ACCCCGCA,-0.0321
19,AGAGTACA,-0.0359
20,CCTGTTGA,0.0279
21,AGACACCA,0.0323
22,TCGACCCA,-0.083
23,ATGCATGC,0.0181
24,AACGGAAC,0.155
25,GACTTGCA,-0.00365

row,Sequence,PBM E-score
1,AGCAATAA,0.0192
2,AGGCAAAT,0.128
3,AAAAACAG,0.00478
4,ATTCAAAT,0.171
5,CTCGCTAA,0.0462
6,AGATCGCT,-0.0566
7,GCGACGAC,-0.21
8,AGAGTGGA,-0.105
9,GAACGCGC,0.131
10,ACCACAAT,-0.0179
11,CCATAGAG,-0.1
12,GAGACCTA,-0.0668
13,GCCGTTCA,-0.0133
14,CCACTAGC,-0.158
15,AATTCATG,0.17
16,CCACAAGG,-0.103
17,GCGGATCC,-0.106
18,ACTCACAA,0.125
19,AGGTGAAA,0.132
20,CACCGATC,0.0686
21,CAATGCCC,-0.0495
22,ACGAGTTC,0.129
23,CTACCTTC,0.0321
24,AGACGGTG,-0.182
25,CAGCAATG,-0.12

row,Sequence,PBM E-score
1,CAAGACAG,-0.164
2,GGCCAACA,0.0741
3,ACACAGAT,-0.0398
4,CCCAGCGA,-0.125
5,CTACTAAC,0.204
6,ATGGGGAC,-0.0269
7,ACCTCTCA,-0.0116
8,GCCGCCGC,-0.154
9,ATGCCGAC,0.00742
10,CTCATCGA,0.0406
11,AAAGCAGC,0.0963
12,ACTACCCG,-0.0183
13,CATGATTA,0.28
14,AACGCCAC,-0.0135
15,CAAAGACG,0.0173
16,CAGGCGTC,-0.186
17,ACTGACAG,0.143
18,ATGAACAG,-0.0211
19,AAGCTAGC,-0.00358
20,ATGCCGTG,-0.0106
21,AGGCTGAC,-0.0394
22,CCATAATC,0.144
